Assay [1] concerns the target PPP1R17 (in AtT-20 cells) (mouse (endogenous in AtT-20)) (UniProt Q9Z2E4). The assay can be described thus: co-IP.
Assay [2] has as its target PPP1R17 (human (endogenous in CD adenoma tissue)) (UniProt O96001). The assay can be described thus: proximity ligation.

Chains of the proteins cited; added tags and fusions are not shown. Lines headed by an entry give the natural chain unless they say otherwise; changes in a name come on top.
UniProt Q9Z2E4: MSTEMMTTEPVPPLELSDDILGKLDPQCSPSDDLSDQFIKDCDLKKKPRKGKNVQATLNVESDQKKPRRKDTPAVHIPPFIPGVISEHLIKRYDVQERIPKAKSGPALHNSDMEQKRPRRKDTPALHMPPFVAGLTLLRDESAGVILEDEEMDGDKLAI
UniProt O96001: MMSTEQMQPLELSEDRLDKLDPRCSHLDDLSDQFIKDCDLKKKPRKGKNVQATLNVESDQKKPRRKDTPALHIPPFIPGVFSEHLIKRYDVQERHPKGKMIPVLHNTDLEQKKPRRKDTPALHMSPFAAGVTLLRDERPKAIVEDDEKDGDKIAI
UniProt P62137: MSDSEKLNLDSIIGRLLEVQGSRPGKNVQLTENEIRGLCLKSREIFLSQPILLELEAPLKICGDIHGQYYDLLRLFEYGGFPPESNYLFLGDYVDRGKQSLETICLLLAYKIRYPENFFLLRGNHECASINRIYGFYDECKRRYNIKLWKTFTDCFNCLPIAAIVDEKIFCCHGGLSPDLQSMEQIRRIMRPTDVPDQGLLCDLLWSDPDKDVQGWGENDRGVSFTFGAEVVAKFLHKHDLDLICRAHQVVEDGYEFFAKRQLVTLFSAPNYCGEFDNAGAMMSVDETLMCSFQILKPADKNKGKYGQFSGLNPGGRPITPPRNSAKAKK
UniProt P67775: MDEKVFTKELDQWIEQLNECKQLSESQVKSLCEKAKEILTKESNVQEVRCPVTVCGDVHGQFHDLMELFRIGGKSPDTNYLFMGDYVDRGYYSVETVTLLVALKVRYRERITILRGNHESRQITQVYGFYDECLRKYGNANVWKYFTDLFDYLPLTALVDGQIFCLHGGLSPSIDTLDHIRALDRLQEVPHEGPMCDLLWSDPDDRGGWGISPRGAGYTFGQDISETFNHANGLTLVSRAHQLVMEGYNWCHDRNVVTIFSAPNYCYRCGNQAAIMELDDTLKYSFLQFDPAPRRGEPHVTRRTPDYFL

The record followed here is paper doi:10.1101/2025.09.28.679056.

Results are given in words; binding and its absence hold for the method and conditions named. In cells and extracts the contact can be indirect. Binding calls can cover weak binding; strength is not graded here.

On to “PP1-alpha (from UniProt P62137 1-330) (enzyme)”, for which the binding entry in assay [1] is on record as “binds weakly”.

On to PP2Ac (from UniProt P67775) (enzyme), for which, in assay [2], the binding result is given as “binds”.
